Reference: patent US12535491B2, “Vaccine comprising protein-targeted (PT) extracellular DNA isolated from bacterial matrix” (priority 2018, dated 2026)

B1: F13B_HUMAN (protein, UniProt P05160 21-661, looked up)
Coagulation factor XIII B …: EEKPCGFPHVENGRIAQYYYTFKSFYFPMSIDKKLSFFCLAGYTTESGRQEEQTTCTTEGWSPEPRCFKKCTKPDLSNGYISDVKLLYKIQENMRYGCASGYKTTGGKDEEVVQCLSDGWSSQPTCRKEHETCLAPELYNGNYSTTQKTFKVKDKVQYECATGYYTAGGKKTEEVECLTYGWSLTPKCTKLKCSSLRLIENGYFHPVKQTYEEGDVVQFFCHENYYLSGSDLIQCYNFGWYPESPVCEGRRNRCPPPPLPINSKIQTHSTTYRHGEIVHIECELNFEIHGSAEIRCEDGKWTEPPKCIEGQEKVACEEPPFIENGAANLHSKIYYNGDKVTYACKSGYLLHGSNEITCNRGKWTLPPECVENNENCKHPPVVMNGAVADGILASYATGSSVEYRCNEYYLLRGSKISRCEQGKWSSPPVCLEPCTVNVDYMNRNNIEMKWKYEGKVLHGDLIDFVCKQGYDLSPLTPLSELSVQCNRGEVKYPLCTRKESKGMCTSPPLIKHGVIISSTVDTYENGSSVEYRCFDHHFLEGSREAYCLDGMWTTPPLCLEPCTLSFTEMEKNNLLLKWDFDNRPHILHGEYIEFICRGDTYPAELYITGSILRMQCDRGQLKYPRCIPRQSTLSYQEPLRT
B2: IGHA1_HUMAN [2] (protein, UniProt P01876 1-398, looked up)
Immunoglobulin heavy constant …: ASPTSPKVFPLSLCSTQPDGNVVIACLVQGFFPQEPLSVTWSESGQGVTARNFPPSQDASGDLYTTSSQLTLPATQCLAGKSVTCHVKHYTNPSQDVTVPCPVPSTPPTPSPSTPPTPSPSCCHPRLSLHRPALEDLLLGSEANLTCTLTGLRDASGVTFTWTPSSGKSAVQGPPERDLCGCYSVSSVLPGCAEPWNHGKTFTCTAAYPESKTPLTATLSKSGNTFRPEVHLLPPPSEELALNELVTLTCLARGFSPKDVLVRWLQGSQELPREKYLTWASRQEPSQGTTTFAVTSILRVAAEDWKKGDTFSCMVGHEALPLAFTQKTIDRLADWQMPPPYVVLDLPQETLEEETPGANLWPTTITFLTLFLLSLFYSTALTVTSVRGPSGNREGPQY

Tested on: heat-resistant proteins of human plasma
Assay: LC/MS of heat-resistant proteins in plasma after exposure to proteinase K and boiling

| Molecule | N-plasma + pK (LC/MS, healthy human blood plasma after incubation for 30 minutes with Proteinase K, following heating for 100° C. for 5 minutes (probe_2)) | N-plasma + pk (LC/MS, control plasma with added proteinase K, heated at 100° C. for 5 minutes) | Effect (N-plasma + pk vs N-plasma) (change on adding proteinase K to normal plasma) |
| --- | --- | --- | --- |
| B1 | 4 |  |  |
| B2 |  | 36 | ↑ |
